Reference: PMC4055408
Results are given in words; binding and its absence hold for the method and conditions named. In cells and extracts the contact can be indirect. A yes stands for co-enrichment or nearness to the bait. Other partners may have been found.

The chains behind the UniProt entries cited, without tags or fusion partners.
UniProt Q9UI95: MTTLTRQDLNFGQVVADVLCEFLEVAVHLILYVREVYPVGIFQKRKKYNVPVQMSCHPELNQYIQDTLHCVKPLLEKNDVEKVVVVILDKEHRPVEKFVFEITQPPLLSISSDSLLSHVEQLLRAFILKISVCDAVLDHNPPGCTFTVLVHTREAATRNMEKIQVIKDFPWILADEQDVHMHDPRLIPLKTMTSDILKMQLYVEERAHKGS
UniProt P78347: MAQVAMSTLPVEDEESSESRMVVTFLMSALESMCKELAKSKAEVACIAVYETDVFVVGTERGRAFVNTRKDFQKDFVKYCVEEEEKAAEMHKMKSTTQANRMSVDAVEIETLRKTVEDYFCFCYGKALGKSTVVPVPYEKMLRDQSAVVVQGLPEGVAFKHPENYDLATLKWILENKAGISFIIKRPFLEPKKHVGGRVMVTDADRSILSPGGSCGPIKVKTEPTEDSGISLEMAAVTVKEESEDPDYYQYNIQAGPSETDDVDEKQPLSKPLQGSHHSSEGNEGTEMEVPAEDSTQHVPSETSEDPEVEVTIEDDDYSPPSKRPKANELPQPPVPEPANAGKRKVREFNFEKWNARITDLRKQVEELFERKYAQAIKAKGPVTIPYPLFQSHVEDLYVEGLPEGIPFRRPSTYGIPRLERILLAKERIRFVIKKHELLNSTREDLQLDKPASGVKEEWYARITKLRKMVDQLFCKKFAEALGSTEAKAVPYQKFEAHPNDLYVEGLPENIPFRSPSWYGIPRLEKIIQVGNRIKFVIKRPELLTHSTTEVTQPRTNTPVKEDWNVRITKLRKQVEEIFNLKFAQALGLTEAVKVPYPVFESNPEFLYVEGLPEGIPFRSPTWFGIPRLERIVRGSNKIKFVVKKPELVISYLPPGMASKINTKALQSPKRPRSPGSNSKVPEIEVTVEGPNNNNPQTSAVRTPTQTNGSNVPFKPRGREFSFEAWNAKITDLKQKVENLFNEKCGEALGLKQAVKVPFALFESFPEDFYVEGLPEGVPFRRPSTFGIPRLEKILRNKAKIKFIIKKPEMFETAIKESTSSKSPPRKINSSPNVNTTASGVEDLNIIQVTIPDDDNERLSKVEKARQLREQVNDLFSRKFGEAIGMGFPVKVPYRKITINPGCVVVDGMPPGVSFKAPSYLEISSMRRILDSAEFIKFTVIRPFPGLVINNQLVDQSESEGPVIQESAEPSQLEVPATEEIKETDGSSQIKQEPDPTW
UniProt P27708: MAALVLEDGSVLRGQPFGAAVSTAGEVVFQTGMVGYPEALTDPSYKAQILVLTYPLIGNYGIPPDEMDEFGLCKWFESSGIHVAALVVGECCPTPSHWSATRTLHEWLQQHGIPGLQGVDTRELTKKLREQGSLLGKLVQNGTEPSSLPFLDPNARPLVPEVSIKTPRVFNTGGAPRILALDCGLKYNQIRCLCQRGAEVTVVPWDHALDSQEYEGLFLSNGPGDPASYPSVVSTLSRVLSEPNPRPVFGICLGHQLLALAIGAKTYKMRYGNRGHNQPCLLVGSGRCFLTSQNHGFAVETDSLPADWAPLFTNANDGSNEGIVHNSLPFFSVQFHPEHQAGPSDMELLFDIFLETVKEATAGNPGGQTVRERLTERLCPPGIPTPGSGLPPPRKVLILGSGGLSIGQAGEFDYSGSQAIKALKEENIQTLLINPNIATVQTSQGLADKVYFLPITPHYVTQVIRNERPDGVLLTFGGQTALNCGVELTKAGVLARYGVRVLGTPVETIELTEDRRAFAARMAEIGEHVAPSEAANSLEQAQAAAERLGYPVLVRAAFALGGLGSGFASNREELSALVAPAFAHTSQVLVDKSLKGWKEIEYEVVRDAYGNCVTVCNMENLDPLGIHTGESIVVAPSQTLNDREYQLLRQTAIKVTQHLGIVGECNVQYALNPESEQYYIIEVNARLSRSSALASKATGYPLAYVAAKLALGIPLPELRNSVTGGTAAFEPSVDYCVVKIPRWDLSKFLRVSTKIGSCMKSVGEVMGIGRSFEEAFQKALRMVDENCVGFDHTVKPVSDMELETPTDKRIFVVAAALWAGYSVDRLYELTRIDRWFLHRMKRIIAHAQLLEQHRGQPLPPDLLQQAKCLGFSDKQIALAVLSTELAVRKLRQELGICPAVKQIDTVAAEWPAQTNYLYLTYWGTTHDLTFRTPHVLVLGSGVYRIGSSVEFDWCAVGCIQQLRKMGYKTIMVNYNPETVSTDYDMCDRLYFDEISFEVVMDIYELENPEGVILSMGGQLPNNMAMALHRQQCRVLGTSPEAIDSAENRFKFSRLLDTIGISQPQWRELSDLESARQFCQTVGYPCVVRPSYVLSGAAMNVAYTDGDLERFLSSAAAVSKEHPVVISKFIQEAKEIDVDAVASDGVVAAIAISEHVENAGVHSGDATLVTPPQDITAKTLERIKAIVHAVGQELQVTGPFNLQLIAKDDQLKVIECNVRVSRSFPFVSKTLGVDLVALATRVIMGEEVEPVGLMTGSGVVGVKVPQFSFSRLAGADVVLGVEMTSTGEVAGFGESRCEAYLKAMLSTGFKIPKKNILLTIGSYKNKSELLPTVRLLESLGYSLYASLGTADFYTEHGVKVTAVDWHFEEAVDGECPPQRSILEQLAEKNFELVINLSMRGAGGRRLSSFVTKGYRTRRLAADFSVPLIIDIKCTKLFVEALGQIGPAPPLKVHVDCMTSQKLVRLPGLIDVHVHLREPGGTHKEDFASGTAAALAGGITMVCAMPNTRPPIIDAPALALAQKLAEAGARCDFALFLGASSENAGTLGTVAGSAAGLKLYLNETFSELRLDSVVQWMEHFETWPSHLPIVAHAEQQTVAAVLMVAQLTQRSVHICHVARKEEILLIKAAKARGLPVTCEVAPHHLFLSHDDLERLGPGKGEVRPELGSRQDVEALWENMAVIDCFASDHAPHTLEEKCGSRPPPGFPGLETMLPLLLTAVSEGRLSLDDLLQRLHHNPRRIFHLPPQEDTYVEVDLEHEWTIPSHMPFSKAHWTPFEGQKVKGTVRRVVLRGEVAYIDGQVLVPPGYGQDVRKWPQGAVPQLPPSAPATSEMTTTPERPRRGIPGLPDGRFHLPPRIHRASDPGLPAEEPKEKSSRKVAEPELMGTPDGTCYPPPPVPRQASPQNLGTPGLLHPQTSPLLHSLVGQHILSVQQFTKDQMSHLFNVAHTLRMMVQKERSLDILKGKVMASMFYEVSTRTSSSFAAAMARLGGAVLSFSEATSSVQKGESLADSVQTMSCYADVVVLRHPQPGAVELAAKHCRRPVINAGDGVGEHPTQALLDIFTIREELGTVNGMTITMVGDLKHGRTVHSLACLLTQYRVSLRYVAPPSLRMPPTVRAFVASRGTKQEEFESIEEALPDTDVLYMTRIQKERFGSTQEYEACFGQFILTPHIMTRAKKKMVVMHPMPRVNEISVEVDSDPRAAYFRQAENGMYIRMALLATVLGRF

Target: TAP-Rev7 (human Rev7 fused at its N-terminus with a tandem affinity purification tag) (human) (UniProt Q9UI95)
Assay: affinity purification with mass spectrometry; tandem affinity purification of TAP-Rev7 from stable 293T cells (IgG-Sepharose, TEV, calmodulin-Sepharose), with or without UV 10 J/m^2; bands cut from the gel of the unirradiated sample, nano-LC/MS/MS

TFII-I, endogenous (from UniProt P78347 1-998)
binding: binds

CAD (Carbamoyl-phosphate synthetase 2, Aspartate transcarbamylase, and Dihydroorotase), endogenous (from UniProt P27708 1-2225) (enzyme)
binding: binds
